In PMC8387526 (EJNMMI Radiopharmacy and Chemistry, 2021):
For part of these data: HELM strings list residues between dots; [ac] is acetyl, [am] amide, other brackets name non-standard units.

How the values were obtained:
[1] = general procedure: Fmoc solid-phase peptide synthesis; 2-CT resin; TBTU, HOBt or HOAt, DIPEA; conditions: whole synthesis, TFA salt
[2] = general procedure: Fmoc solid-phase peptide synthesis; Rink amide ChemMatrix (0.50 mmol/g); 2-CT resin for protected fragments; TBTU, HOBt or HOAt, DIPEA; conditions: for isolated mass / isolated yield: 2 TFA
[3] = general procedure: Fmoc solid-phase peptide synthesis; Rink amide ChemMatrix; TBTU, HOBt or HOAt, DIPEA; conditions: whole synthesis
peptide synthesis = conditions: coupling step, referred to 18, 2TFA
[4] = whole synthesis, scale 37.5 µmol
[5] = whole synthesis, scale 25.5 µmol
[6] = whole synthesis, scale 0.13 mmol
[7] = whole synthesis, scale 0.13 mmol, run 1
[8] = whole synthesis, scale 0.30 mmol

Substance: Boc-L-His(Boc)-Aib-L-Glu(OtBu)-Gly-L-Thr(tBu)-L-(α-Me)Phe(2-F)-L-Thr(tBu)-L-Ser(tBu)-L-Asp(OtBu)-OH
- crude mass ([1]; scale 1.73 mmol): 2720 mg

Substance: Fmoc-L-His(Trt)-Aib-L-Glu(OtBu)-Gly-L-Thr(tBu)-L-(α-Me)Phe(2-F)-L-Thr(tBu)-L-Ser(tBu)-L-Asp(OtBu)-OH
- crude mass ([1]; scale 0.21 mmol): 162 mg

Substance: Fmoc-L-His(Trt)-Aib-L-Glu(OtBu)-Gly-L-Thr(tBu)-L-(α-Me)Phe-L-Thr(tBu)-L-Ser(tBu)-L-Asp(OtBu)-OH
- crude mass ([1]; scale 0.31 mmol): 545 mg

Substance: H-L-His-Aib-L-Glu-Gly-L-Thr-L-(α-Me)Phe(2-F)-L-Thr-L-Ser-L-Asp-L-Dap(SiFA)-L-homoPhe-NH2
- isolated mass [2, 4]: 5.40 mg
- isolated yield [2, 4]: 8.24%

Substance: H-L-His-Aib-L-Glu-Gly-L-Thr-L-(α-Me)Phe(2-F)-L-Thr-L-Ser-L-Asp-L-Val-L-Dap(SiFA)-NH2
- isolated mass [2, 5]: 8.40 mg
- isolated yield [2, 5]: 21.7%

Substance: H-L-His-Aib-L-Glu-Gly-L-Thr-L-(α-Me)Phe(2-F)-L-Thr-L-Ser-L-Asp-L-Val-L-Ser-L-Ser-L-Dap(SiFA)- L-Leu-L-Glu-NH2
- isolated mass ([3]; scale 0.13 mmol, 2 TFA): 22.2 mg
- isolated yield ([3]; scale 0.13 mmol, 2 TFA): 8.12%

Substance: H-L-His-Aib-L-Glu-Gly-L-Thr-L-(α-Me)Phe(2-F)-L-Thr-L-Ser-L-Asp-L-Val-L-homoPhe-L-Ser-L-Dap(SiFA)-L-Leu-L-Glu-NH2
- isolated mass ([3]; scale 0.13 mmol, 2 TFA): 17.2 mg
- isolated yield ([3]; scale 0.13 mmol, 2 TFA): 6.08%

Substance: H-L-His-Aib-L-Glu-Gly-L-Thr-L-(α-Me)Phe(2-F)-L-Thr-L-Ser-L-Asp-NH2
- step yield ([2]; late stage modification step, TFA salt): 4.82%

Substance: H-L-His-Aib-L-Glu-Gly-L-Thr-L-(α-Me)Phe(2-F)-L-Thr-L-Ser-L-Asp-O2Oc-L/D-Dap(SiFA)-L-Leu-L-Glu-NH2 (12/13)
- difficulty met ([2]; whole synthesis, TFA salt): Racemization occurred during the coupling of Fmoc-L-Dap(Dde)-OH
- isolated mass [2, 6]: 2.38 mg
- isolated yield [2, 6]: 3.62%

Substance: H-L-His-Aib-L-Glu-Gly-L-Thr-L-(α-Me)Phe(2-F)-L-Thr-L-Ser-L-Asp-O2Oc-L/D-Dap(SiFA)-L-Leu-L-Glu-NH2 (12/13) [12]
- difficulty met ([2]; whole synthesis, TFA salt): Racemization occurred during the coupling of Fmoc-L-Dap(Dde)-OH
- isolated mass [2, 7]: 1.41 mg
- isolated yield [2, 7]: 2.14%

Substance: H-L-His-Aib-L-Glu-Gly-L-Thr-L-(α-Me)Phe-L-Thr-L-Ser-L-Asp-L-Dap(SiFA)-L-homoPhe-NH2
- isolated mass [2, 4]: 2.70 mg
- isolated yield [2, 4]: 4.16%

Substance: H-L-His-Aib-L-Glu-Gly-L-Thr-L-(α-Me)Phe-L-Thr-L-Ser-L-Asp-L-Phe(4-I)-L-homoPhe-NH2
- isolated mass [2, 8]: 4.47 mg
- isolated yield [2, 8]: 0.90%

Substance: PEPTIDE1{H.[Aib].E.G.T.[aMePhe2F].T.S.D.[BIP2Et4OMe].[homoPhe].[am]}$$$$V2.0
- step yield (peptide synthesis): 16.1% referred to 18%
- final HPLC purity ([2]; coupling step, RP-HPLC, TFA salt): 95%
- outcome ([2]; whole synthesis, TFA salt): 1 could not be obtained by a linear reaction protocol

Substance: PEPTIDE1{[ac].G.Q.A.A.K.E.F.I.A.W.L.V.K.G.R.[am]}$$$$V2.0
- isolated mass ([3]; scale 93.3 µmol, 3 TFA): 10.2 mg
- isolated yield ([3]; scale 93.3 µmol, 3 TFA): 5.32%
